According to publication PMC10163288:
This is one part of the list.

B1: il10ra_site1_normal_mot_HHH_b1_05357_000000034_0001_23_39_H_._HHH_b2_06351_0001_0000200023_0000001_0 (protein)
chain: SSSSSELEELLREAEELLEEGNPHEASHVLIRAYAIAHERNDEEAKKRIQEVARKAARLAASSSS
B2: il10ra_site1_sap_25_mot_19263c5dd3522ffa6b1c765d9be26258_0001_1_000000064_0001_15_32_H_._26de121311cec1c6b0b9f4dad300ffe3_0001_1_0001_0000100001_0000001_0_0001_ … (protein)
chain: SSSSSDYEERIEELLEEAKRTPDEEEAKELLQEAAKLAVEAGNPELIEEIIRVYAEIAKSSSSSS
B3: il10ra_site1_normal_mot_HHH_b1_05357_000000034_0001_23_39_H_._HHH_b2_07549_0002_0000300038_0000001_0_af2pred_0001 (protein)
chain: SSSSSDEEIREEVEELLEEAKQIEDRKRLAELAVRAIALANELRDPELRRLVREALRRLLSSSSS
B4: il10ra_site1_normal_mot_HHH_b1_08009_000000194_0001_1_19_H_._HHH_b1_00833_0001_0000100001_0000001_0 (protein)
chain: SSSSTVEFTVEFVLELVEELLERGDPEQARFLLERLERVLEDAGDEELLRLVRELLEEIEKSSSS
B5: il10ra_site1_normal_mot_HHH_b2_02053_af2_000000006_0001_3_19_H_._HHH_b1_02427_0001_0000200022_0000001_0 (protein)
chain: SSSSDAEELYELSRKALELLANGNPEEARKLLEEAQEIAEEANNQVILFNIRFLLRQVERQSSSS
B6: il10ra_site1_sap_17_mot_HHH_b2_02267_000000141_0001_1_20_H_._HHH_b2_04031_af2_0001_0000600017_0000002_0_0001_af2pred_0001 (protein)
chain: SSSSDEEEEEALRLLIRLFRLLEEGDEEEARELAEEARRVAEELNDPLTRAAIKLMLEHLSSSSS
B7: il10ra_site1_sap_17_mot_HHH_b2_00076_000000055_0001_40_55_H_._HHH_b1_07763_af2_0001_0000100002_0000002_0_0001 (protein)
chain: SSSSDLEEEVRELLEEAKRIEDPEEVEELLLEAQAIAARARDPRLSHEIIKVYAELNQELSSSSS
B8: il10ra_site1_normal_mot_HHH_b1_05431_000000021_0001_1_19_H_._HHH_b1_05337_af2_0001_0000200008_0000001_0 (protein)
chain: SSSSSDEVFELLRELFELAQRGDEEEFEEVYRRIEELIEELGNFVFEWSLRRIEHNFRFNSSSSS
B9: il10ra_site1_normal_mot_8756ee2cf497b5429c717dfc0c0bcfd6_0001_000000186_0001_1_13_H_._HHH_b2_00465_af2_0001_0000300014_0000002_0_af2pred_0001 (protein)
chain: SSSSNEELEELFELIEKAAELLHNGNPEEAKEVLEEAEELARELNNLAAEAQLRFLKKIVDSSSS
B10: il10ra_site1_normal_mot_HHH_b2_06795_000000133_0001_42_56_H_._HHH_b2_02252_0001_0000200027_0000001_0_af2pred_0001 (protein)
chain: SSSSDREEELLERLLRALERLAELGDEERFEALARFIKRLAKDANDPEIERRVEEIEERVHSSSS
B11: il10ra_site1_sap_22_mot_HHH_b2_02633_000000127_0001_22_39_H_._HHH_b1_07594_0001_0001400080_0000001_0_0001 (protein)
chain: SSSSSDEEVRELLEEAEELAEEGNPREAMRVLAEAVRLAFERGDEEALQLVWELVQRLAESSSSS
B12: il10ra_site1_normal_mot_HHH_b2_02497_000000220_0001_1_20_H_._HHH_b2_03338_0001_0000100003_0000001_0 (protein)
chain: SSSSDEDEEEVERLLEEAKESDDVDESYELIRKAIEVAAESNNQELFRLIMEVIREWLRNSSSSS
B13: il10ra_site1_sap_22_mot_HHH_b1_05609_af2_000000134_0001_1_18_H_._HHH_b1_04617_af2_0001_0000300045_0000002_0_0001 (protein)
chain: SSSSDEREELEELLEEIERLLEEGDPERALELLQEALRFAFQLGDEEILQRLWRLAKEVASSSSS
B14: il10ra_site1_normal_mot_HHH_b2_04275_000000272_0001_20_36_H_._HHH_b2_04520_0001_0000200024_0000001_1_af2pred_dldesign_0_af2pred (protein)
chain: SSSSSPQEELVRLVREIAELLSEGKLEEAKKLLEKAKELAEKLGDKVTLRTLEYLEKQLESSSSS
B15: il10ra_site1_sap_16_mot_HHH_b2_06643_000000103_0001_1_18_H_._HHH_b2_07694_0001_0000100008_0000001_0_0001_af2pred_0001 (protein)
chain: SSSSSSEEEELAELALRLLVEALQHGDPELREEIKELIEEAEKVGDERVVRLLRAALRALSSSSS
B16: il10ra_site1_sap_11_mot_HHH_b1_06789_af2_000000041_0001_1_20_H_._HHH_b2_05339_af2_0001_0000600013_0000001_0_0001_af2pred_0001 (protein)
chain: SSSSDEERKEVEELLEEAEHIEDPLERAYVLSKAYALAVEIRDPEAERLVKEVARRLSERSSSSS
B17: il10ra_site1_sap_18_mot_HHH_b2_00984_000000042_0001_1_20_H_._HHH_b2_04529_0001_0000100002_0000002_0_0001 (protein)
chain: SSSSDEEEIEEVLELAERLQELAEERGNRALAWLVRQALKALRLAKDPHALRMLKSLIRLNSSSS
B18: il10ra_site1_sap_10_mot_HHH_b2_00943_af2_000000149_0001_1_17_H_._HHH_b1_00350_0002_0000200016_0000002_0_0001 (protein)
chain: SSSSSEEEKRLEELIEEAEELLERGNPQEAIRVLREAVRIAYRANDAELLRQLWELIRKVASSSS
B19: il10ra_site1_normal_mot_HHH_b1_05056_000000217_0001_1_20_H_._HHH_b2_00793_0001_0000200005_0000001_0 (protein)
chain: SSSSSSSEEEEVEELLEEAREIEDEEEVSRLLQEAAHVALRAQNQELLQLVWEVVKELSSSSSSS
B20: il10ra_site1_sap_17_mot_HHH_b2_00984_000000042_0001_1_20_H_._263437940a0803172d72c1f0c28c3a46_0001_0001_0000500012_0000001_0_0001_af2pred_0001 (protein)
chain: SSSSDKEKAFRLYIEAYIALAQGNPEEAEELLREALEIAKELGDEALIRAIERLLELVERKSSSS
B21: il10ra_site1_sap_19_mot_HHH_b2_01032_000000296_0001_1_18_H_._HHH_b2_05460_af2_0001_0000100004_0000002_0_0001_af2pred_0001 (protein)
chain: SSSSSSDLEQTARAQLWFARLIENPDARRIALEFAEEVAEEAGDEELLKEIREELEEVGSSSSSS
B22: il10ra_site1_sap_18_mot_65b8060e20531850bca9f2e11f97d954_0001_af2_000000137_0001_17_31_H_._HHH_b1_01433_0001_0000100004_0000001_0_0001_af2pred_0001 (protein)
chain: SSSSDVEERVEELEQEVRELLENGNPHEALKVIREIARLAAENNDDEALEIALELVRLVFSSSSS
B23: il10ra_site1_sap_21_mot_HHH_b2_02337_000000026_0001_38_52_H_._HHH_b1_05241_af2_0001_0000100004_0000001_1_0001 (protein)
chain: SSSSSDEEQRALEIFQEAFRALLRGNPEEAEELLREAEELAREIGDERLLEMIEDLKRANSSSSS
B24: il10ra_site1_sap_36_mot_0eddeacbb14b769e73e254714f31e2f9_0001_af2_000000203_0001_37_51_H_._HHH_eva_0267_0001_0000500013_0000002_0_0001 (protein)
chain: SSSSSEEEKKLEELLEELEELVKEGDRERIAKLAQEVLRLAFQLSDEEALRAVWRVMRRLSSSSS

What follows are binders tested against il10ra, Q13651 (assay: yeast display titration).

Apparent Kd, inactive:
B1 no binding seen, B2 no binding seen, B3 no binding seen, B4 no binding seen, B5 no binding seen, B6 no binding seen, B7 no binding seen, B8 no binding seen, B9 no binding seen, B10 no binding seen, B11 no binding seen, B12 no binding seen, B13 no binding seen, B14 no binding seen, B15 no binding seen, B16 no binding seen, B17 > 1.41 µM, B18 no binding seen, B19 no binding seen, B20 no binding seen, B21 no binding seen, B22 no binding seen, B23 no binding seen, B24 no binding seen
